The list shows a part of the results.
Each target was assayed with CCN(CCCOc1ccc2c(Nc3cc(CC(=O)Nc4cccc(F)c4)[nH]n3)ncnc2c1)CCOP(=O)(O)O [barasertib] (assay: log2 fold change, soluble protein after heating vs DMSO (PISA); higher = thermal stabilisation; K562 cells, 10 uM, 30 min; active = over 0.2 and 3.5 SD of the protein, either way, in both replicates (recomputed)).
Method in brief: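 For each measurement, 10 μM compound was applied for 30 min to K562 cells at 2×10^6 cells/mL. Aliquots were heated for 3 min across 48°C-58°C, pooled, and extracted in PBS with 0.5% NP-40 at 4°C; the supernatant after 21,000xg for 90 min was soluble protein. This was quantified by TMTpro 16plex LC-MS/MS with channel sums equalised, and thermal stability was reported relative to control samples from duplicates, on a log2 fold-change scale.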

By UniProt entry, the sequences of proteins in these tests, tags left out. Where a name states a change or a piece, a line headed by the entry shows the natural chain unless it says otherwise.
UniProt P32189: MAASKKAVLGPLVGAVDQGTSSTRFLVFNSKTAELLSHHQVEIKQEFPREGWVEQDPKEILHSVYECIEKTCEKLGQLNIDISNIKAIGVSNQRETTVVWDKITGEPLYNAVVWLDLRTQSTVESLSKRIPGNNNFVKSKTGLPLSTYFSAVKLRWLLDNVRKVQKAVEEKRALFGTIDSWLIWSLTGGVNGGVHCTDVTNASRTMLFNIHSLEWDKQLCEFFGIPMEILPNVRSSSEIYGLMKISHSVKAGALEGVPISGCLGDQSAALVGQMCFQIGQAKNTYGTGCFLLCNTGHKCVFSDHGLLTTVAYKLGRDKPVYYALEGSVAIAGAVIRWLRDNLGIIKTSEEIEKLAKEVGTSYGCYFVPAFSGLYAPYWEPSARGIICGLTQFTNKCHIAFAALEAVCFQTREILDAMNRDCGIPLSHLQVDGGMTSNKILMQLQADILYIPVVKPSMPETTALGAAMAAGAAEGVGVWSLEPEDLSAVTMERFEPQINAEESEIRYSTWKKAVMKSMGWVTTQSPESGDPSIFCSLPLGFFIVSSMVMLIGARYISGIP
UniProt Q49A26: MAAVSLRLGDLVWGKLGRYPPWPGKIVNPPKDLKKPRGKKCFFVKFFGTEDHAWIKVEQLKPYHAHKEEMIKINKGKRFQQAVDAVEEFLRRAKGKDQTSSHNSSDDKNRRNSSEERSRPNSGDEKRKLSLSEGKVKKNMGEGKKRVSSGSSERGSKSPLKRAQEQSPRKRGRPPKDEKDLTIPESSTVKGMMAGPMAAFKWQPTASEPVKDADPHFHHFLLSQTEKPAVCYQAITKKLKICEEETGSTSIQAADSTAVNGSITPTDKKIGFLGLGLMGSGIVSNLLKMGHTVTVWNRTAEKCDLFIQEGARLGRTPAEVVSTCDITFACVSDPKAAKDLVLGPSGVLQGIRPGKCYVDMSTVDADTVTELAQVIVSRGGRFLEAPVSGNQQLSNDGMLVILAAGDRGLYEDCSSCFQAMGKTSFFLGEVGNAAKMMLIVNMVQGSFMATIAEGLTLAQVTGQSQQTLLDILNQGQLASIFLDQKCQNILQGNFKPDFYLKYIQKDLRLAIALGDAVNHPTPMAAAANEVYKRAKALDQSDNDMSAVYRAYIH
UniProt Q14691: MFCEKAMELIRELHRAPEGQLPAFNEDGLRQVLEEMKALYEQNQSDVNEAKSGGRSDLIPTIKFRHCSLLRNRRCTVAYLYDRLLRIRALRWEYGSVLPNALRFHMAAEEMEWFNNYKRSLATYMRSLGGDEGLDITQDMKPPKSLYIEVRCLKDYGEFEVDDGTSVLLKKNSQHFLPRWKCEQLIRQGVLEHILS
UniProt P62879, whole entry, looked up: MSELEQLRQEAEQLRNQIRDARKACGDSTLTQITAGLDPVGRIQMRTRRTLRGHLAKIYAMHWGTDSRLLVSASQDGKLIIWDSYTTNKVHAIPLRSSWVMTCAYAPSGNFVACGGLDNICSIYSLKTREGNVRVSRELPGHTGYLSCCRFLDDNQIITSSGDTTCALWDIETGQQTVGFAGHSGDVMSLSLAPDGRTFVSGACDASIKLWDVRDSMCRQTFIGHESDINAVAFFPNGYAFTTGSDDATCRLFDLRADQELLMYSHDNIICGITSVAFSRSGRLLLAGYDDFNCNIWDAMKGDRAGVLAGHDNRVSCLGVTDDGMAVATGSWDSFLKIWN
UniProt Q9Y5P6: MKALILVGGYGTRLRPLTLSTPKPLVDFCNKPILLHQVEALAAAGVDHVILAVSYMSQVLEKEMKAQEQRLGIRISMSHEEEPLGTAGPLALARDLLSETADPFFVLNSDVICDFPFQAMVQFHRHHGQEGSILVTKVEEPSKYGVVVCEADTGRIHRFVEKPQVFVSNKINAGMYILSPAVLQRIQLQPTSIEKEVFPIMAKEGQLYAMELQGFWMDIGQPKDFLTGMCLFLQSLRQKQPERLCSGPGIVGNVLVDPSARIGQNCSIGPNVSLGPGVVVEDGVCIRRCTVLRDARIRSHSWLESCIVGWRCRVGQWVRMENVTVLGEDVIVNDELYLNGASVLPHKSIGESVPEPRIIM
UniProt P49840: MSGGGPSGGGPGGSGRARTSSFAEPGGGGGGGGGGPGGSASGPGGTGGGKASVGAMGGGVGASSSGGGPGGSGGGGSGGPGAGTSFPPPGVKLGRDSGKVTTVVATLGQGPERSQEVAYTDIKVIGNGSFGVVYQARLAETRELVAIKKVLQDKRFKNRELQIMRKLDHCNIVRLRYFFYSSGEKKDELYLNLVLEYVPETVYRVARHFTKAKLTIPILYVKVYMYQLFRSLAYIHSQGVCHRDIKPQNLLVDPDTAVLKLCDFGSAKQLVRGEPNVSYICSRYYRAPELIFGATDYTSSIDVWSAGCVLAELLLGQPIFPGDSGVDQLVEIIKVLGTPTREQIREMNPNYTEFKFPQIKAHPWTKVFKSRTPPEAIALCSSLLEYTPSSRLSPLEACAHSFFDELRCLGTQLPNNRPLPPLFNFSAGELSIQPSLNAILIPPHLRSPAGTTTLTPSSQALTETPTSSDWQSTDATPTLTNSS
UniProt Q86UL3: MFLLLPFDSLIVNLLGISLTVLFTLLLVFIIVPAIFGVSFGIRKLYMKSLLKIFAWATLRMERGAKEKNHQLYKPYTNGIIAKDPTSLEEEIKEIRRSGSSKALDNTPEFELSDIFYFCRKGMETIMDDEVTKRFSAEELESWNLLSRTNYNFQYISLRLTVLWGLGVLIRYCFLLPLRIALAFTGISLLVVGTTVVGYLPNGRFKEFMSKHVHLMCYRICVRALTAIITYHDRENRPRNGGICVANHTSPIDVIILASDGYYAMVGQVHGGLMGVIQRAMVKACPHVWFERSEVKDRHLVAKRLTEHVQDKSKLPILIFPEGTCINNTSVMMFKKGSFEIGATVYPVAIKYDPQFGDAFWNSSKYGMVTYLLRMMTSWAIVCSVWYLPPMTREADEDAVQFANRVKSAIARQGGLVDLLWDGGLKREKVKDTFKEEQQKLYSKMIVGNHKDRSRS
UniProt O75496: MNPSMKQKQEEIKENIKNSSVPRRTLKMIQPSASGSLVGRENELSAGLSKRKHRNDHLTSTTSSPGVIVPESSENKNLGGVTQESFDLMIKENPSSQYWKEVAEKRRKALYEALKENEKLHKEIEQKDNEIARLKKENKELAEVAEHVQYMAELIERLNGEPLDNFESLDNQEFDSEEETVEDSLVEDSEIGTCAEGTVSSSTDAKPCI
UniProt Q13098: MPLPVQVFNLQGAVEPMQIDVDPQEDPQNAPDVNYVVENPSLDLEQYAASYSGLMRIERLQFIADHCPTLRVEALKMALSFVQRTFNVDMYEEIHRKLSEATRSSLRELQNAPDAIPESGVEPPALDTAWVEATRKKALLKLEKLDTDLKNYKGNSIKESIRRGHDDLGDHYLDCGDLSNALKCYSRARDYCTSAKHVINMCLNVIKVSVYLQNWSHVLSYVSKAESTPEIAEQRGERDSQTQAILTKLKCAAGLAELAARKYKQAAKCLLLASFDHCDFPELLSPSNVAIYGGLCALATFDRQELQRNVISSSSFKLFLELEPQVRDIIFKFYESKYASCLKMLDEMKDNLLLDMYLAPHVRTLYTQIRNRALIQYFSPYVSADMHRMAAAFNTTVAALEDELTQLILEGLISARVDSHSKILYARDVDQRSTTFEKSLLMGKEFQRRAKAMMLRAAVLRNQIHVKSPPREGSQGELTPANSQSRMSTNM
UniProt Q9BRT9, whole entry, looked up: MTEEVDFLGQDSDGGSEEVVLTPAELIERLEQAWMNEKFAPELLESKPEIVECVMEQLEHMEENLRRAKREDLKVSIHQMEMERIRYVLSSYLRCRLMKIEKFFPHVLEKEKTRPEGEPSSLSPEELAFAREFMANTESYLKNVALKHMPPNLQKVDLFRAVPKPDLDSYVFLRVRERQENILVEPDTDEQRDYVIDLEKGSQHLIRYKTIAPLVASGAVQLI
UniProt P17900: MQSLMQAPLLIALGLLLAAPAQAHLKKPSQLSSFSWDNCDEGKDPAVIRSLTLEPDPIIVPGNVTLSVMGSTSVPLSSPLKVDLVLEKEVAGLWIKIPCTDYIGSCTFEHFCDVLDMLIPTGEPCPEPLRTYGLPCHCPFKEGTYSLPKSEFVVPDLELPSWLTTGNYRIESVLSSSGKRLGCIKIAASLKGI
UniProt P46926: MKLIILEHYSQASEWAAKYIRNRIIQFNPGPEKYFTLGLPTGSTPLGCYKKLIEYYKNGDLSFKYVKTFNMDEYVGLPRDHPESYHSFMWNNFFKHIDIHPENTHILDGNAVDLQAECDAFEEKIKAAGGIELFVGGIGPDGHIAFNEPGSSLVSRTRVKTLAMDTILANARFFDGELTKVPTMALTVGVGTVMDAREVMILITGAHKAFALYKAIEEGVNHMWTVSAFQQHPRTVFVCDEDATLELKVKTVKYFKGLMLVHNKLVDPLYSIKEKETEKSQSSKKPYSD
UniProt B7ZAQ6: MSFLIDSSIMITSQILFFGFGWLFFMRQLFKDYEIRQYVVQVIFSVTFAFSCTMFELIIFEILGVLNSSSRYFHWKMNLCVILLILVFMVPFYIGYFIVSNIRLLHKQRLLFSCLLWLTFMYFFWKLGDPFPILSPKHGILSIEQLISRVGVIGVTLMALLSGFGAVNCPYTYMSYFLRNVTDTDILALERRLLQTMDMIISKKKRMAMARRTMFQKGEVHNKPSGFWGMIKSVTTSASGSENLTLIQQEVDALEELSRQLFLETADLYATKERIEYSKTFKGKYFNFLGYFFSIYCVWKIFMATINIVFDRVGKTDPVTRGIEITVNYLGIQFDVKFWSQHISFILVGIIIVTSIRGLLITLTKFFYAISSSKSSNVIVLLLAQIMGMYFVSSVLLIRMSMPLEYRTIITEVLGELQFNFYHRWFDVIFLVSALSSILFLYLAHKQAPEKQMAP
UniProt Q8TBA6: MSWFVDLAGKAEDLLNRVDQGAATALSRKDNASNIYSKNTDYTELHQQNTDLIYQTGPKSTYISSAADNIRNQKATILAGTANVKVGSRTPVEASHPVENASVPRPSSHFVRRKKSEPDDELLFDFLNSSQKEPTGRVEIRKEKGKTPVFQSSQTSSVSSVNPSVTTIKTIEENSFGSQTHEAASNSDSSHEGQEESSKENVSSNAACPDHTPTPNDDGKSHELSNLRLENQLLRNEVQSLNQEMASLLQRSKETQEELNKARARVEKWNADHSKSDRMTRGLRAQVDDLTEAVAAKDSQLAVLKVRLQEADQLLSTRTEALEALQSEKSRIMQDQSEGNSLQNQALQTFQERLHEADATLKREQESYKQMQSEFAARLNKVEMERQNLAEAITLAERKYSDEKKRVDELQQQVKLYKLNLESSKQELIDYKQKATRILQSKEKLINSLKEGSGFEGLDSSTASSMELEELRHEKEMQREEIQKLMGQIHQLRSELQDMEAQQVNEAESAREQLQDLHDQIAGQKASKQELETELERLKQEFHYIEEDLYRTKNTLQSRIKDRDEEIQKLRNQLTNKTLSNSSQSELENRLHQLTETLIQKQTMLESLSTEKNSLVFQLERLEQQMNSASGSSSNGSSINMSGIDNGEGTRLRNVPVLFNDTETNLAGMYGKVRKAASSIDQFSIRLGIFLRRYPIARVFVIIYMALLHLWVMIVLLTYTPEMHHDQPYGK
UniProt Q9HC38: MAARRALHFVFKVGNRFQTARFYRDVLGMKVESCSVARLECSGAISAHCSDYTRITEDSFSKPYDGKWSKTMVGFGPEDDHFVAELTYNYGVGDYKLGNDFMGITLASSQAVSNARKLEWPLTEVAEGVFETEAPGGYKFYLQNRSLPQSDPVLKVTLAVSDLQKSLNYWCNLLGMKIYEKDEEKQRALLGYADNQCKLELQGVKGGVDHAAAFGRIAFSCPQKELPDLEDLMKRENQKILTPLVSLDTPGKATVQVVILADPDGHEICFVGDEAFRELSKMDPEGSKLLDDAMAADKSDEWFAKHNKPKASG
UniProt Q9UBQ7: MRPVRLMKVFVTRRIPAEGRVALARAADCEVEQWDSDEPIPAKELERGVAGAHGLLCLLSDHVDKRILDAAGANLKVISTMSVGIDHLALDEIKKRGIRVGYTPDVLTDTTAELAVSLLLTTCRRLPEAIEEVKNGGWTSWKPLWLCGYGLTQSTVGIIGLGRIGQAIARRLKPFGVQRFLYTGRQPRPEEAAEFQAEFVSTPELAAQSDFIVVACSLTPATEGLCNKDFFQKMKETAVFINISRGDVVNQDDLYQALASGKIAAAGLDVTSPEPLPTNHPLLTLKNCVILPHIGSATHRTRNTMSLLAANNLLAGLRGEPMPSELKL
UniProt Q9P2T1: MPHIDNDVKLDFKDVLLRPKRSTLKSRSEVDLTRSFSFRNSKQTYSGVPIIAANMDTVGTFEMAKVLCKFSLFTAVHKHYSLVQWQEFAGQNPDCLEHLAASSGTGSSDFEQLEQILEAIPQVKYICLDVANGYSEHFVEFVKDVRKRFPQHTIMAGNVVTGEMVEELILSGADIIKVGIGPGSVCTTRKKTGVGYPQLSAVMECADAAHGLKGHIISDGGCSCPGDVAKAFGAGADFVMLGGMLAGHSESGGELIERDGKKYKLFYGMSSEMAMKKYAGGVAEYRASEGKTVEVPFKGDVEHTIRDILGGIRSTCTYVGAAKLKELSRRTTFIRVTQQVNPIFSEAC

log2 fold change, inactive:
GPAT3 (UniProt Q53EU6) 0.061
GK (UniProt P32189) 0.009
GLYR1 (UniProt Q49A26) 0.136
GPATCH11 (UniProt Q8N954) 0.035
GPKOW (UniProt Q92917) 0.027
GNB1 (UniProt P62873) -0.061
GINS1 (UniProt Q14691) 0.027
GNB2 (UniProt P62879) -0.042
GNAI2 isoform 4 (UniProt P04899) -0.047
GPALPP1 (UniProt Q8IXQ4) -0.004
GMPPB isoform 2 (UniProt Q9Y5P6) 0.018
GNB4 (UniProt Q9HAV0) 0.032
GPHN isoform 2 (UniProt Q9NQX3) 0.005
GNL1 (UniProt P36915) 0.017
GSK3A (UniProt P49840) 0.014
GPAT4 (UniProt Q86UL3) 0.027
GIPC1 (UniProt O14908) 0.028
GNB1L (UniProt Q9BYB4) 0.001
GMNN (UniProt O75496) -0.024
GMDS (UniProt O60547) -0.036
GPS1 isoform 7 (UniProt Q13098) 0.018
GINS4 (UniProt Q9BRT9) 0.042
GM2A (UniProt P17900) 0.105
GLRX5 (UniProt Q86SX6) 0.036
GINS3 (UniProt Q9BRX5) 0.058
GNPDA1 (UniProt P46926) 0.005
GMEB2 (UniProt Q9UKD1) 0.029
GPN1 isoform 5 (UniProt Q9HCN4) 0.008
GPR89A (UniProt B7ZAQ6) 0.006
GINS2 (UniProt Q9Y248) 0.053
GOLGA5 (UniProt Q8TBA6) 0.056
GNE isoform 2 (UniProt Q9Y223) 0.008
GNPNAT1 (UniProt Q96EK6) -0.034
GLOD4 isoform 2 (UniProt Q9HC38) 0.009
GRHPR (UniProt Q9UBQ7) 0.01
GPN3 isoform 2 (UniProt Q9UHW5) 0.003
GLRX2 isoform 2 (UniProt Q9NS18) -0.054
GMPR2 isoform 2 (UniProt Q9P2T1) -0.01
GRSF1 (UniProt Q12849) 0.013
GRB2 (UniProt P62993) 0.008

Taken from the listing for reference:
log2 fold change, inactive:
GPATCH11 (UniProt Q8N954) 0.035
GPKOW (UniProt Q92917) 0.027

Reference: the supplement of paper PMC10849652
